Results on four molecules are retold here after paper PMC4260354.

These are yes or no findings as the source states them, for the method shown. In cells and extracts the contact can be indirect. Here binding means that the protein was enriched with, or labelled near, the bait; the list need not be complete. Tags and fused reporters may be left off the sequences shown.

The labels stand for the following.
B1: CHR28 (protein, UniProt Q94BR5 1-981)
chain: MDSAIDISSDSDVEIQETRTRPQHPPRIAEGSHRRDLSTLRPHFLSGSSSGANGHTKTGLTNLDSRNGFESKPLPRAEHHTHIPGNGSIVTSRIPNISVGDYEKFSSQQAFKRTHPPTFSRPPFPPRPDIGTSNGNASHFRGGAHDDLGMGRVTNGTRILPPSVAHGTSASPSHFNGLSDPMHRNGIGEERNSENDERLIYQAALQELNQPKSEVDLPAGLLSVPLMKHQKIALAWMFQKETNSLHCMGGILADDQGLGKTVSTIALILKQMHEAKLKSKNSGNQEAEALDLDADDESENAFEKPESKASNGSGVNGDSGIKKAKGEEASTSTRKFNRKRPAAGTLIVCPASVVRQWARELDEKVTDEAKLSVLIYHGGNRTKDPIELAKYDVVMTTYAIVSNEVPKQPLVDDDENDEKNSEKYGLASGFSINKKRKNVVGTTKKSKKKKGNNNAGDSSDPDSGTLAKVGWFRVVLDEAQTIKNHRTQVARACCGLRAKRRWCLSGTPIQNTIDDLYSYFRFLKYDPYAVYKSFCHQIKGPISRNSLQGYKKLQAVLRAIMLRRTKGTLLDGQPIINLPPKTINLSQVDFSVEERSFYVKLESDSRSQFKAYAAAGTLNQNYANILLMLLRLRQACDHPQLVKRYNSDSVGKVSEEAVKKLPKEDLVSLLSRLESSPICCVCHDPPEDPVVTLCGHIFCYQCVSDYITGDEDTCPAPRCREQLAHDVVFSKSTLRSCVADDLGCSSSEDNSHDKSVFQNGEFSSSKIKAVLDILQSLSNQGTSNSTQNGQMASSSQQPNDDDDDDDDDVTIVEKTSLKSTPSNGGPIKTIIFSQWTGMLDLVELSLIENSIEFRRLDGTMSLIARDRAVKEFSNDPDVKVMIMSLKAGNLGLNMIAACHVILLDLWWNPTTEDQAIDRAHRIGQTRPVTVTRITIKNTVEDRILALQEEKRKMVASAFGEDHGGSSATRLTVDDLKYLFMV
B2: CHR19/ETL1 (protein, UniProt Q9ZUL5 1-763)
chain: MKRDFDEISEEEWSQHSFNASRVLKRPRTPKKTRAATNPTPSIESFAFRRPSTAMTIESNSSDGDCVEIEDLGDSDSDVKIVNGEDLLLEDEEEVEETKVVMRAARVGRRFVIEDEEASDDDDDEAESSASEDEFGGGGGGSGGRRGEDEDVVGKALQKCAKISADLRKELYGTSSGVTDRYSEVETSTVRIVTQNDIDDACKAEDSDFQPILKPYQLVGVNFLLLLYKKGIEGAILADEMGLGKTIQAITYLTLLSRLNNDPGPHLVVCPASVLENWERELRKWCPSFTVLQYHGAARAAYSRELNSLSKAGKPPPFNVLLVCYSLFERHSEQQKDDRKVLKRWRWSCVLMDEAHALKDKNSYRWKNLMSVARNANQRLMLTGTPLQNDLHELWSLLEFMLPDIFTTENVDLKKLLNAEDTELITRMKSILGPFILRRLKSDVMQQLVPKIQRVEYVLMERKQEDAYKEAIEEYRAASQARLVKLSSKSLNSLAKALPKRQISNYFTQFRKIANHPLLIRRIYSDEDVIRIARKLHPIGAFGFECSLDRVIEEVKGFNDFRIHQLLFQYGVNDTKGTLSDKHVMLSAKCRTLAELLPSMKKSGHRVLIFSQWTSMLDILEWTLDVIGVTYRRLDGSTQVTDRQTIVDTFNNDKSIFACLLSTRAGGQGLNLTGADTVIIHDMDFNPQIDRQAEDRCHRIGQTKPVTIFRLVTKSTVDENIYEIAKRKLVLDAAVLESGVHVDDNGDTPEKTMGEILASLLMG
B3: CHR27 (protein, UniProt Q9LHE4 1-1047)
chain: MDSAIEISSGSDSDDEVPPQPVWPQTRTRMDPTWLSRRPLPTVDSHARAEHTNQAPPNGASSDTSRPGVSKPFTGNGNTVNSRISSGSGADYVRLSSEQALKRTLPPSFNSPPLPARSGTNNISNASGSRVGVDYERPLSQQALKRTLPPSFNPPPLPSRSGTNNIRNAGGSRFGADYSHPAVSAVGNKSTFGDHYSGAHAEIGIQRGVNGVRILPPSLTHGTSASVLHHAGSSDPMHRFGGGEDRNPDNDERLVYQAALQVLNQPMTESDLPPGTLSVPLMRHQKIALAWMFQKETSSFNCPGGILADDQGLGKTVSTIALILKQKIVSQLKSESSCKQETEALVLDADDESDNAKHESGSHVKPELKVSSNSETSVLSACGNDENDSSDMEKAEDEEANSSTRAFQWKRPAAGTLIVCPASVVRQWARELDEKVSEESKLSVLVYHGSNRTKDPNELAEYDVVVTTYAIVTNEAPNKFLVDEDENDEKNTDRYGLASGFSNNKKRKVVVGASKKSKRRGRKSTNDTSSEPDCGPLGKVGWFRIVLDEAQTIKNYRTQMARSCCTLRAKRRWCLSGTPIQNTIDDLYSYFRFLRYDPYAVYKSFYSTIKVPISRNSCQGYKKLQAVLRAIMLRRTKGTLLDGKPIINLPPKVVNLSQVDFSVAERSFYKKLEADSRSQFKAYADAGTLSQNYANILLLLLRLRQACDHPQLVKRYNSDPVGKVSEAAVRRLPREARSRLINRLESSSAICYECNEPPEKPVVTLCGHIFCYECVLEYITGDENTCPVPRCKQQLARDVVFSESSLRNCTSDDSGCSSSHDNGLDRSVFQKRDFCSSKIKAVLDILQSLSQPDSPNSAQHGQMPSSSRPYDDDDVTIVEPMRLHSSSPSQGAVKTIIFSQWTGMLDLVELRILESGIEFRRLDGTMSLAARDRAVKEFSKKPDVKVMLMSLKAGNLGLNMVAACHVILLDLWWNPTTEDQAIDRAHRIGQTRPVTVTRITIKDTVEDRILKLQEEKRTMVASAFGEEHGGSSATRLTVDDLKYLFMV
B4: SUVR1 (protein, UniProt Q946J2 1-734)
chain: MAPNLRIKKACDAMKLLGISETKTRAFLRKLLKTYENNWDFIEEDAYKVLLDAIFDEADAQSTEKNKKEEEKKKKEEEKKSRSVATSRGRRKAPEPLVQDEEDDMDEDEFPLKRRLRSRRGRASSSSSSSSSYNNEDLKTQPEEEDEDDGVTELPPLKRYVRRNGERGLAMTVYNNASPSSSSRLSMEPEEVPPMVLLPAHPMETKVSEASALVILNDEPNIDHKPVISDTGNCSAPMLEMGKSNIHVQEWDWETKDILNDTTAMDVSPSSAIGESSEHKVAAASVELASSTSGEAKICLSFAPATGETTNLHLPSMEDLRRAMEEKCLKSYKIVHPEFSVLGFMKDMCSCYIDLAKNSTSQLLETETVCDMSKAGDESGAVGISMPLVVVPECEISGDGWKAISNMKDITAGEENVEIPWVNEINEKVPSRFRYMPHSFVFQDAPVIFSLSSFSDEQSCSTSCIEDCLASEMSCNCAIGVDNGFAYTLDGLLKEEFLEARISEARDQRKQVLRFCEECPLERAKKVEILEPCKGHLKRGAIKECWFKCGCTKRCGNRVVQRGMHNKLQVFFTPNGKGWGLRTLEKLPKGAFICEYIGEILTIPELYQRSFEDKPTLPVILDAHWGSEERLEGDKALCLDGMFYGNISRFLNHRCLDANLIEIPVQVETPDQHYYHLAFFTTRDIEAMEELAWDYGIDFNDNDSLMKPFDCLCGSRFCRNKKRSTKTMQILNKA

The target in this test is T1, SUVR2-Flag (Arabidopsis) (UniProt Q9FNC7).
T1 sequence: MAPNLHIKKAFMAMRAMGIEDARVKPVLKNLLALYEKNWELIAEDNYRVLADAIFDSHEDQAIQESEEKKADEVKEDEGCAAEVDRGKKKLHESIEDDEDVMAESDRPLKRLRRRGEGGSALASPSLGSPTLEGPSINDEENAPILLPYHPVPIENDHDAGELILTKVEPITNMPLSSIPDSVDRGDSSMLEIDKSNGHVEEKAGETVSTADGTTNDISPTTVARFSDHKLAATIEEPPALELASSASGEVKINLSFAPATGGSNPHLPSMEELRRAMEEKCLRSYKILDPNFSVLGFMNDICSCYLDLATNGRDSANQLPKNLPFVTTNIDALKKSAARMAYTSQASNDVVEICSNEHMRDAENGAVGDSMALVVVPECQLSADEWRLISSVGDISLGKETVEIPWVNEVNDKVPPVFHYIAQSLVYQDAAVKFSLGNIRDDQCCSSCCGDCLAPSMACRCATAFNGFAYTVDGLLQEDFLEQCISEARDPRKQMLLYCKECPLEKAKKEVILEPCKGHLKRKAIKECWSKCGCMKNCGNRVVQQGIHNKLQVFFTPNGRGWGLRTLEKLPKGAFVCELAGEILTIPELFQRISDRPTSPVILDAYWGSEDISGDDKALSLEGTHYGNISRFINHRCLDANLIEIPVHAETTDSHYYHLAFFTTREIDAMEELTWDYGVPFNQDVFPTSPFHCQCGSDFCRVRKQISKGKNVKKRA
In words: affinity purification with mass spectrometry; protein extracts of flower tissue of transgenic plants; anti-Flag M1 agarose, eluted with 3x Flag peptides, SDS-PAGE, silver staining, in-gel trypsin digestion, mass spectrometry; wild-type control.
In the case of B1, the binding result is “binds”.

Turning to B2, the binding result is listed as “binds”.

B3: the binding result is recorded as “binds”.

Consider B4, for which the binding entry is recorded as “binds”.
